No constants are given. Whether binding was seen depends on the method and setting. In cells and extracts the contact can be indirect. Some entries that bind do so weakly or less than the wild type. For some assays here: Tags and fused reporters may be left off the sequences shown. Each block holds one molecule with its values, some of them ahead of it.
Experiments:
[1] = molecular target: T1, Flag-NGN3 (Neurogenin 3) (UniProt Q9Y4Z2); assay: co-IP; HEK293T cells cotransfected with Flag-NGN3, Myc-FBW7 and HA-Ub, treated with 0 or 10 uM MG132; lysate immunoprecipitated with anti-Flag antibodies, western blotting
T1 sequence: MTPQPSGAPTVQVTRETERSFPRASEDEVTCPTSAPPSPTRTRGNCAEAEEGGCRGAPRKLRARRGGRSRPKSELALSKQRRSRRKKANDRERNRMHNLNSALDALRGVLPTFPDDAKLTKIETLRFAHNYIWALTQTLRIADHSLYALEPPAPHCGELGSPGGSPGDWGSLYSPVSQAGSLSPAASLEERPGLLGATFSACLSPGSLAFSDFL

Protein sequences, listed by entry. Tags and fused reporters are not part of them.
UniProt P52945: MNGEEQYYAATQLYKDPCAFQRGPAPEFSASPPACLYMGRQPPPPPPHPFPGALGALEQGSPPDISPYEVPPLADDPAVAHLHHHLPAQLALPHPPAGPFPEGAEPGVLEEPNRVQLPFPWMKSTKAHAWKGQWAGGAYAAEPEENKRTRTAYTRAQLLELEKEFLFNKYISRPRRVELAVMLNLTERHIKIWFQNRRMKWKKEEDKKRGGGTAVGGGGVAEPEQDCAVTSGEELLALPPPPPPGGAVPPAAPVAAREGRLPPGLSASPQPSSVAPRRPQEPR
UniProt Q969H0: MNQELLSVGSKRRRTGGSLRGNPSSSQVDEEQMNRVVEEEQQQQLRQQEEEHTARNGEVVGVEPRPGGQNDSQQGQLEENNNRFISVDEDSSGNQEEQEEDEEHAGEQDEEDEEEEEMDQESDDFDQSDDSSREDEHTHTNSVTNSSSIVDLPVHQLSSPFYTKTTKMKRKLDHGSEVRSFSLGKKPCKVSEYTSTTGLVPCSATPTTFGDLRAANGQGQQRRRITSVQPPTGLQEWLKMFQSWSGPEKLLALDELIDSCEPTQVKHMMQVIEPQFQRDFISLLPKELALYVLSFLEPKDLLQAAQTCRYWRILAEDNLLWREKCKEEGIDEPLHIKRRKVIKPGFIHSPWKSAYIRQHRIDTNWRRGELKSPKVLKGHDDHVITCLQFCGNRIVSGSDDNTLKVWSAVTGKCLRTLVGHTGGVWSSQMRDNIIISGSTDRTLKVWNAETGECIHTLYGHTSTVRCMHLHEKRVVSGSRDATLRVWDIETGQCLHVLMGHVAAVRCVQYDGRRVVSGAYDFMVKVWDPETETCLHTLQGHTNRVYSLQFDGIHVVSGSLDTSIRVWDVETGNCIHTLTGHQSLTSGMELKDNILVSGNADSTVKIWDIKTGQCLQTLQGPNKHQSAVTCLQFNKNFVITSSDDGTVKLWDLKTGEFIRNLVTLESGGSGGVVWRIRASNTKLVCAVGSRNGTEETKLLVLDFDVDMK

[2] = molecular target: pancreatic-duodenal homeobox factor 1 (PDX1), endogenous (human (endogenous in human beta cells and i-Beta cells)) (UniProt P52945); assay: co-IP; immunoprecipitation with an anti-PDX1 antibody from i-Beta cells and human beta cells, western blotting for NGN3

binding [1]: binds
Molecule: Myc-FBW7 (from UniProt Q969H0 1-707)

binding [2]: binds
B1: NGN3 (Neurogenin 3), endogenous (protein, UniProt Q9Y4Z2 1-214)
chain: T1 sequence
